The list shows a part of the results. Residues, ends and D or L forms follow the SMILES beside them. *: point of attachment. Cbz = O=C(OCc1ccccc1)*
Experiments:
Assay in all cases: log2 fold change, soluble protein after heating vs DMSO (PISA); higher = thermal stabilisation; K562 cells, 10 uM, 30 min; active = over 0.2 and 3.5 SD of the protein, either way, in both replicates (recomputed)
erlotinib = compound: C#Cc1cccc(Nc2ncnc3cc(OCCOC)c(OCCOC)cc23)c1 [erlotinib]
Procedure, shortened: (§1)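 Aliquots of K562 cells (2×10^6 cells/mL) treated with 10 μM compound for 30 min were heated for 3 min over 48°C-58°C. After pooling and extraction in PBS with 0.5% NP-40 at 4°C, soluble protein from a 21,000xg, 90 min spin was quantified by TMTpro 16plex LC-MS/MS with channel sums equalised. Thermal stability is expressed against control samples, from duplicates, as a log2 fold change.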

Protein sequences, listed by entry. Tags and fused reporters are not part of them. Lines headed by an entry give the natural chain unless they say otherwise; changes in a name come on top.
UniProt P56381: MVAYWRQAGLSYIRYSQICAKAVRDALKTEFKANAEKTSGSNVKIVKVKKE
UniProt Q9Y487, whole entry, looked up: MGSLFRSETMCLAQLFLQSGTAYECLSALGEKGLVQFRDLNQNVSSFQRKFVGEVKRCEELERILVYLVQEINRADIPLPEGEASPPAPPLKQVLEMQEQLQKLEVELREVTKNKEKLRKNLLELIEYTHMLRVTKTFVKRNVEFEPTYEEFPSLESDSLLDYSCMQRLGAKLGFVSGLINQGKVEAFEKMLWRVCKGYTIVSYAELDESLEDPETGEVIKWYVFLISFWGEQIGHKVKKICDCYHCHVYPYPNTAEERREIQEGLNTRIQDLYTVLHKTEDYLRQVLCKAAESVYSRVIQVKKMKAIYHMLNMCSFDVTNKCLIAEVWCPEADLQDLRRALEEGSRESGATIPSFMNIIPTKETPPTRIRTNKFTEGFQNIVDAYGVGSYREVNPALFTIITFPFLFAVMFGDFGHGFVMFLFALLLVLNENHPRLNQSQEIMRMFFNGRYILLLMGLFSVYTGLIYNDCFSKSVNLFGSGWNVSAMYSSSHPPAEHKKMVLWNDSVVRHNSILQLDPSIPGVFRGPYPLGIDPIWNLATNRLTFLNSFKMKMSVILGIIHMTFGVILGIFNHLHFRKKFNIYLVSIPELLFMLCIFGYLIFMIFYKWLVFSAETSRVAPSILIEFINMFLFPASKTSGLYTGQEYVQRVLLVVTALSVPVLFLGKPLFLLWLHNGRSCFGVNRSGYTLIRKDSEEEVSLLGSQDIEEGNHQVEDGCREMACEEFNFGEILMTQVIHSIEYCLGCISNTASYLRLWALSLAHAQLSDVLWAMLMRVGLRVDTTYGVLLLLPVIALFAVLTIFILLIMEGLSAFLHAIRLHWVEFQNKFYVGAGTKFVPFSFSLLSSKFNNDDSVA
UniProt P54259: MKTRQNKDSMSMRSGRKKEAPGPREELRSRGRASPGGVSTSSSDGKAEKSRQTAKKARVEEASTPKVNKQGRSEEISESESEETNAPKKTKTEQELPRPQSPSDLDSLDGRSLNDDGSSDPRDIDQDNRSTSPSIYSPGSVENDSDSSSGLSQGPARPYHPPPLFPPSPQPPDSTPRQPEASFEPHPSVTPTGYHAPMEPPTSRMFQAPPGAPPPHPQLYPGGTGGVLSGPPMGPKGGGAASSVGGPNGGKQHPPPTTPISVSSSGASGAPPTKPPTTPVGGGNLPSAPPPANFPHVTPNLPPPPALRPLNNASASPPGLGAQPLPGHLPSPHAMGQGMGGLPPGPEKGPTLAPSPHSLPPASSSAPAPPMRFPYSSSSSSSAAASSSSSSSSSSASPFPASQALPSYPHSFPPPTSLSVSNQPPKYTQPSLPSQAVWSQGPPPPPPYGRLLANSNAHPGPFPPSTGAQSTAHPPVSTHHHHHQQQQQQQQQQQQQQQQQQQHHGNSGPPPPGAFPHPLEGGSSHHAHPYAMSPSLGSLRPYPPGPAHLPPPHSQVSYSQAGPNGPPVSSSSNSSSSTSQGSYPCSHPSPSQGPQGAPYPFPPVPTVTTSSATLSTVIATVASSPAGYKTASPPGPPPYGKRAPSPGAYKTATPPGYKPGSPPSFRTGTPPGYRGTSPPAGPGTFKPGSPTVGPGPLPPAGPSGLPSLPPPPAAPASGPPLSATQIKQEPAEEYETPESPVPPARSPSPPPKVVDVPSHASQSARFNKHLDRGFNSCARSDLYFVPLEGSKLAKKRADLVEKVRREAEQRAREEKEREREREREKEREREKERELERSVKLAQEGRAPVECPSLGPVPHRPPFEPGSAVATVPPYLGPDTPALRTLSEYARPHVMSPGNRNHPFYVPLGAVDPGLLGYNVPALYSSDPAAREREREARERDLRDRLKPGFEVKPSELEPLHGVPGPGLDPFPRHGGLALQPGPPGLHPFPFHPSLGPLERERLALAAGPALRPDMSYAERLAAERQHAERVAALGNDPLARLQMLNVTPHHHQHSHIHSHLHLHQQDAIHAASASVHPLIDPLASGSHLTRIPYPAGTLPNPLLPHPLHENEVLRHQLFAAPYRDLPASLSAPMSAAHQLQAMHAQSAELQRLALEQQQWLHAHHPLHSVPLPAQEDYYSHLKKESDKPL
UniProt P08243: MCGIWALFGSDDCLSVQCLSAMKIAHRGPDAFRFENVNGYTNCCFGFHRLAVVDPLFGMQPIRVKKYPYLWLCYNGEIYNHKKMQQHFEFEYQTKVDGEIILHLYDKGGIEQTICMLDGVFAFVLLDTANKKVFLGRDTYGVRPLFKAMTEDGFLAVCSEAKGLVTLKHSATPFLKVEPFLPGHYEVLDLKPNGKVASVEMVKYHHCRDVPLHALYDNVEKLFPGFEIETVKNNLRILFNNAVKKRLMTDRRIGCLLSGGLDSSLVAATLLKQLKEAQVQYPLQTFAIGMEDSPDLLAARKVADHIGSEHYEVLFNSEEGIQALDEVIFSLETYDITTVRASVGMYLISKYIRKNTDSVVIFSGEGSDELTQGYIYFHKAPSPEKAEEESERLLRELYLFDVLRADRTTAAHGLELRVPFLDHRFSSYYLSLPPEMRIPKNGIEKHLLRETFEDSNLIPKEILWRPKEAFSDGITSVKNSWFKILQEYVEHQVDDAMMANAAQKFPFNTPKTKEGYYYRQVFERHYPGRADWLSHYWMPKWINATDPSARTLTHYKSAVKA
UniProt P36405: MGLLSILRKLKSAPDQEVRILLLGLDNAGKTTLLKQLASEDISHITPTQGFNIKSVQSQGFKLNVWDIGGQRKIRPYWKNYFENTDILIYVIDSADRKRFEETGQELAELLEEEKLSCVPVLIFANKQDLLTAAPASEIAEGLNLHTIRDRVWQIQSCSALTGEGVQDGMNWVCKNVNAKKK
UniProt Q9NVI7: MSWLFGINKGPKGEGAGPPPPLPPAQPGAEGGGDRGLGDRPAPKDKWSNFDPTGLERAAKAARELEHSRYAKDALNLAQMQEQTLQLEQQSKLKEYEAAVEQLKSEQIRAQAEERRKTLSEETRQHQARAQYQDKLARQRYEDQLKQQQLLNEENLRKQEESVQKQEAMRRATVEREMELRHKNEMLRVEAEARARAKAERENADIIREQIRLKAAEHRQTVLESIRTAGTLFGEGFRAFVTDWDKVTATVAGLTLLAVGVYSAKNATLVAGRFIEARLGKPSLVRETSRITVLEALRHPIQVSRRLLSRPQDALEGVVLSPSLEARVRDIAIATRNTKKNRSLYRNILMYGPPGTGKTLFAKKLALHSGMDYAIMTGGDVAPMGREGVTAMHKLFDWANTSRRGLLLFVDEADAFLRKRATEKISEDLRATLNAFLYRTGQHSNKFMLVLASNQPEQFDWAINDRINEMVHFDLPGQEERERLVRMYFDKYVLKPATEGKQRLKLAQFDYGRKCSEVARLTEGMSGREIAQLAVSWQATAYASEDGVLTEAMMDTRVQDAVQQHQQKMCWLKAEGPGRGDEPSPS
UniProt P17544: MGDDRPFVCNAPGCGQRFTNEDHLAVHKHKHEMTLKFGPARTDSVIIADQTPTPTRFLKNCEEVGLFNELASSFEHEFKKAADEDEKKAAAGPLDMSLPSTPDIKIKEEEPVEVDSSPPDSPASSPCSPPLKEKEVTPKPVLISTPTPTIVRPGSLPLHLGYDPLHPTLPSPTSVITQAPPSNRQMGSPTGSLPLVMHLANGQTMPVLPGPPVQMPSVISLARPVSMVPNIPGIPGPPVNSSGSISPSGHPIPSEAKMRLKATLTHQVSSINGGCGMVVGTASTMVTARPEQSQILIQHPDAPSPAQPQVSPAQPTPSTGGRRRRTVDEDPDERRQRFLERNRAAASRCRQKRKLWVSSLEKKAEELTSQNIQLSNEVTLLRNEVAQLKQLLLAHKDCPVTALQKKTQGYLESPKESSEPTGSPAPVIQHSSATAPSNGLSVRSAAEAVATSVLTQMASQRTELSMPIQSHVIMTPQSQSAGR
UniProt P56211: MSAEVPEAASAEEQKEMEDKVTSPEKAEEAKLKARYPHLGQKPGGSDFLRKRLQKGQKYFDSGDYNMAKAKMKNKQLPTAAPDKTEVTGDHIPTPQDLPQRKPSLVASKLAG

[1] = compound: C/C(=N\NC(=O)C1=CC(=CC=C1)S(=O)(=O)N2CCOCC2)/C3=C(C=CC(=C3)Cl)O
Procedure, shortened: as §1

[2] = compound: C1=CC(=C(C=C1Cl)C2=NC3=NC=CN=C3C(=N2)NC4=CC=NC=C4)F
Procedure, shortened: as §1

[3] = compound: C1=CC(=CC=C1C2=NC3=C(N2)C=C(C=C3)C(=O)N)OC4=CC=C(C=C4)Cl
Procedure, shortened: as §1

[4] = compound: C1=CC2=C(C=CC(=C2)/C=C\3/C(=O)NC(=NCC4=CC=CS4)S3)N=C1
Procedure, shortened: as §1

[5] = compound: C1=CC2=NC=CN=C2C=C1/C=C/3\C(=O)NC(=O)S3
Procedure, shortened: as §1

[6] = compound: C1=CC=C(C=C1)C2=NC(=C(N2)C3=CC=NC=C3)C4=CC(=C(C=C4)Cl)O
Procedure, shortened: as §1

[7] = compound: C1=CC=C2C(=C1)C3=NNC4=CC=CC(=C43)C2=O
Procedure, shortened: as §1

[8] = compound: C1CCN(C1)C(=O)NC2=CC=CC(=C2)NC3=NC=C(C(=N3)NCCC4=CN=CN4)Br
Procedure, shortened: as §1

[9] = compound: C1CN(CCC1(CC2=CC=C(C=C2)Cl)N)C3=NC=NC4=C3C=CN4
Procedure, shortened: as §1

IRAK-1-4 Inhibitor I = compound: C1COCCN1CCN2C3=CC=CC=C3N=C2NC(=O)C4=CC(=CC=C4)[N+](=O)[O-] [IRAK-1-4 Inhibitor I]
Procedure, shortened: as §1

ibrutinib = compound: C=CC(=O)N1CCC[C@@H](n2nc(-c3ccc(Oc4ccccc4)cc3)c3c(N)ncnc32)C1 [ibrutinib]
Procedure, shortened: as §1

[10] = compound: CC(=O)c1cnc2ccc(-c3cc(Cl)c(O)c(Cl)c3)nc2c1N[C@H]1CC[C@H](CN(C)C)CC1
Procedure, shortened: as §1

ralimetinib = compound: CC(C)(C)Cn1c(N)nc2ccc(-c3[nH]c(C(C)(C)C)nc3-c3ccc(F)cc3)nc21 [ralimetinib]
Procedure, shortened: as §1

[11] = compound: CC(C)(O)CC(=O)NCCn1ccc2ncnc(Nc3ccc(Oc4cccc(C(F)(F)F)c4)c(Cl)c3)c21
Procedure, shortened: as §1

[12] = compound: CC(C)C1=C2N=C(C=C(N2N=C1)NCC3=CC=CC=C3)NCCCCCCN
Procedure, shortened: as §1

[13] = compound: CC(C)C[C@@H](C=O)NC(=O)[C@H](CC(C)C)NC(=O)[C@H](CC(C)C)NC(=O)OCc1ccccc1
Procedure, shortened: as §1

pinometostat = compound: CC(C)N(C[C@H]1O[C@@H](n2cnc3c(N)ncnc32)[C@H](O)[C@@H]1O)[C@H]1C[C@@H](CCc2nc3cc(C(C)(C)C)ccc3[nH]2)C1 [pinometostat]
Procedure, shortened: as §1

[14] = compound: CC1=C(C(CC(=O)N1)C2=CC=C(C=C2)C(F)(F)F)C(=O)NC3=C(C=C4C(=C3)C=NN4)F
Procedure, shortened: as §1

[15] = compound: CC1=C(C2=C(C=C1)C(=O)C3=CC=CC=C3N2CCCN)C
Procedure, shortened: as §1

| Target | log2 fold change (erlotinib) | log2 fold change [1] | log2 fold change [2] | log2 fold change [3] | log2 fold change [4] | log2 fold change [5] | log2 fold change [6] | log2 fold change [7] | log2 fold change [8] | log2 fold change [9] | log2 fold change (IRAK-1-4 Inhibitor I) | log2 fold change (ibrutinib) | log2 fold change [10] | log2 fold change (ralimetinib) | log2 fold change [11] | log2 fold change [12] | log2 fold change [13] | log2 fold change (pinometostat) | log2 fold change [14] | log2 fold change [15] |
| --- | --- | --- | --- | --- | --- | --- | --- | --- | --- | --- | --- | --- | --- | --- | --- | --- | --- | --- | --- | --- |
| ATP5F1E (UniProt P56381) | inactive: -0.01 | inactive: -0.073 | inactive: 0.056 | inactive: 0.009 | inactive: -0.053 | inactive: 0.014 | inactive: -0.009 | inactive: -0.012 | inactive: 0.035 | inactive: 0.007 | inactive: 0.019 | inactive: -0.029 | inactive: 0.023 | inactive: -0.099 | inactive: 0.013 | inactive: 0.035 | inactive: -0.037 | inactive: -0.058 | inactive: 0.004 | inactive: -0.078 |
| ATP6V0A2 (UniProt Q9Y487) | inactive: -0.009 | inactive: 0 | inactive: -0.045 | inactive: 0.031 | inactive: -0.025 | inactive: 0.031 | inactive: 0.024 | inactive: 0.041 | inactive: -0.016 | inactive: 0.002 | inactive: -0.006 | inactive: -0.026 | inactive: -0.017 | inactive: 0.057 | inactive: -0.01 | active: -0.297 | inactive: 0.049 | inactive: 0.054 | – | inactive: 0.003 |
| ATN1 (UniProt P54259) | inactive: 0.05 | inactive: -0.07 | inactive: 0 | inactive: -0.007 | inactive: 0.018 | inactive: 0.079 | inactive: -0.101 | inactive: -0.055 | inactive: -0.147 | inactive: 0.016 | inactive: 0.049 | inactive: -0.023 | inactive: 0.157 | inactive: -0.079 | inactive: 0.068 | inactive: 0.032 | inactive: 0.046 | inactive: -0.154 | inactive: 0.046 | inactive: -0.118 |
| ASNS (UniProt P08243) | inactive: 0.006 | inactive: 0.004 | inactive: 0.053 | inactive: -0.015 | inactive: 0.012 | inactive: -0.011 | inactive: 0.034 | inactive: -0.008 | inactive: 0.002 | inactive: 0.02 | inactive: 0.046 | inactive: 0.015 | inactive: 0.006 | inactive: -0.033 | inactive: -0.029 | inactive: 0.017 | inactive: -0.003 | inactive: -0.034 | – | inactive: -0.007 |
| ARL3 (UniProt P36405) | inactive: -0.009 | inactive: 0.007 | inactive: 0.033 | inactive: -0.037 | inactive: 0.046 | inactive: 0.007 | inactive: 0.019 | inactive: -0.015 | inactive: -0.026 | inactive: 0.041 | inactive: 0.049 | inactive: -0.01 | inactive: -0.033 | inactive: -0.042 | inactive: -0.034 | inactive: 0.065 | inactive: -0.057 | inactive: -0.029 | – | inactive: 0.017 |
| ATAD3A isoform 2 (UniProt Q9NVI7) | inactive: -0.036 | inactive: 0.02 | inactive: -0.045 | inactive: 0.006 | inactive: -0.038 | inactive: -0.013 | inactive: -0.04 | inactive: 0.017 | inactive: 0.037 | inactive: -0.101 | inactive: -0.005 | inactive: 0.08 | inactive: -0.075 | inactive: 0.009 | inactive: -0.023 | active: -0.468 | inactive: 0.075 | inactive: 0.082 | – | inactive: 0.096 |
| ATF7 isoform 6 (UniProt P17544) | inactive: -0.011 | inactive: -0.148 | inactive: -0.043 | inactive: 0.021 | inactive: 0.032 | inactive: -0.055 | inactive: 0.08 | inactive: 0.085 | inactive: -0.004 | inactive: -0.117 | inactive: -0.031 | inactive: 0.199 | inactive: 0.183 | inactive: 0.089 | inactive: -0.042 | inactive: 0.138 | inactive: -0.14 | inactive: 0.019 | – | inactive: 0.22 |
| ARPP19 (UniProt P56211) | inactive: -0.01 | inactive: 0.003 | inactive: 0.076 | inactive: -0.032 | inactive: -0.061 | inactive: 0.041 | inactive: 0.026 | inactive: 0.014 | inactive: -0.024 | inactive: -0.018 | inactive: 0.052 | inactive: -0.009 | inactive: 0 | inactive: 0.048 | inactive: -0.051 | inactive: 0.048 | inactive: -0.071 | inactive: -0.157 | – | inactive: -0.074 |

Some values from the list.
Entry of ASNS (UniProt P08243) under log2 fold change [4]: inactive: 0.012
Entry of ATF7 isoform 6 (UniProt P17544) under log2 fold change (erlotinib): inactive: -0.011

Source: the supplement of paper PMC10849652
